In PMC10866932:
No constants are given. Whether binding was seen depends on the method and setting. Binding seen in cells or lysates may run through a third protein. Some entries that bind do so weakly or less than the wild type.

By UniProt entry, the sequences of proteins in these tests, tags left out.
UniProt Q9UJQ4: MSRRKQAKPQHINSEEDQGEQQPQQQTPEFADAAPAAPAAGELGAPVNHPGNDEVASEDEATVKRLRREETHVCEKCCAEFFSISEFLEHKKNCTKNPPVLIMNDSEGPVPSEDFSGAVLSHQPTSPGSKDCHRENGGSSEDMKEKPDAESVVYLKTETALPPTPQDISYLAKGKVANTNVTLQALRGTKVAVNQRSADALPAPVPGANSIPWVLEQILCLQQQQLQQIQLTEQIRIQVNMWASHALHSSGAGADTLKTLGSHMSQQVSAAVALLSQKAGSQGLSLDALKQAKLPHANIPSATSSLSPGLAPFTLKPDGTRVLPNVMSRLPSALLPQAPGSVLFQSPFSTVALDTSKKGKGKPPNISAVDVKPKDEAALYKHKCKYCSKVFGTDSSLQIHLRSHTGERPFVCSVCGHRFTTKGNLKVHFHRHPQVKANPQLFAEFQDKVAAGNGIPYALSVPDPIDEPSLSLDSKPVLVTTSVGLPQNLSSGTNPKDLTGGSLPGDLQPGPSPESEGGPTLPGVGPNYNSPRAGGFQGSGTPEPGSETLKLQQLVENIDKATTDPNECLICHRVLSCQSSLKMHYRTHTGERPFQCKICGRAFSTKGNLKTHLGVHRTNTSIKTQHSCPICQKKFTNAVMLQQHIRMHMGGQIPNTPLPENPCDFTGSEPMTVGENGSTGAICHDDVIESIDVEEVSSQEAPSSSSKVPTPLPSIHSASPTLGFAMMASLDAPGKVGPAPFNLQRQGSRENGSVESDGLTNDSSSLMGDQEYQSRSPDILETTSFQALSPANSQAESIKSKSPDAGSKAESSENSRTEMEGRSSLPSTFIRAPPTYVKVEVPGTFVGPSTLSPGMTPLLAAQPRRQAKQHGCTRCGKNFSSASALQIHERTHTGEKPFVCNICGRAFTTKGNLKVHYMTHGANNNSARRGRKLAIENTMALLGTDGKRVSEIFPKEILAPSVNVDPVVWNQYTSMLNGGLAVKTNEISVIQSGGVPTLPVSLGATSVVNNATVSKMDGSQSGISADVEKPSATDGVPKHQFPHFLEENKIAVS
UniProt Q86U44: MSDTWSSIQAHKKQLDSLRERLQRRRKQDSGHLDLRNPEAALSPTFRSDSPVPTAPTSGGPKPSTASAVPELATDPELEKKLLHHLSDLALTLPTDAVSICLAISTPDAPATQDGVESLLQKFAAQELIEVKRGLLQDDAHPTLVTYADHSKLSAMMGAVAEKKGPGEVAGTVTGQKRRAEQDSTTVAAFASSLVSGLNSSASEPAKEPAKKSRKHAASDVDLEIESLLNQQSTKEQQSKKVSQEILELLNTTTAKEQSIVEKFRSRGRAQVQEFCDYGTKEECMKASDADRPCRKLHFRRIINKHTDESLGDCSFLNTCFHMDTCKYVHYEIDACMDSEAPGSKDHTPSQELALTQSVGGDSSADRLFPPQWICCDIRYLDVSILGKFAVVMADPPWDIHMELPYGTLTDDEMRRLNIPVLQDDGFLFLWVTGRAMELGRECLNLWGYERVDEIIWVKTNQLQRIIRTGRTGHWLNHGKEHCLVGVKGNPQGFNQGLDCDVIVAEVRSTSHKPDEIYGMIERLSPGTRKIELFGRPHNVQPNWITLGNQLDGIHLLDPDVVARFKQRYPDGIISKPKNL

Target: Spalt-like transcription factor 4 (SALL4) (human (endogenous in CD44(+)-OSCC cells)) (UniProt Q9UJQ4)
Assay: co-IP; protein samples of CD44(+)-OSCC cells; rabbit anti-SALL4, rabbit anti-METTL3 (10 ug) or IgG overnight at 4 °C, Protein A/G agarose beads, western blotting; IgG as negative control

Substance: methyltransferase-like 3 (METTL3) (from UniProt Q86U44 1-580)
- binding: binds
